# Measurements from PubChem BioAssay (NCATS).
# By UniProt entry, the sequences of proteins in these tests, tags left out. Where a name states a change or a piece, a line headed by the entry shows the natural chain unless it says otherwise.
# UniProt Q8WZA2: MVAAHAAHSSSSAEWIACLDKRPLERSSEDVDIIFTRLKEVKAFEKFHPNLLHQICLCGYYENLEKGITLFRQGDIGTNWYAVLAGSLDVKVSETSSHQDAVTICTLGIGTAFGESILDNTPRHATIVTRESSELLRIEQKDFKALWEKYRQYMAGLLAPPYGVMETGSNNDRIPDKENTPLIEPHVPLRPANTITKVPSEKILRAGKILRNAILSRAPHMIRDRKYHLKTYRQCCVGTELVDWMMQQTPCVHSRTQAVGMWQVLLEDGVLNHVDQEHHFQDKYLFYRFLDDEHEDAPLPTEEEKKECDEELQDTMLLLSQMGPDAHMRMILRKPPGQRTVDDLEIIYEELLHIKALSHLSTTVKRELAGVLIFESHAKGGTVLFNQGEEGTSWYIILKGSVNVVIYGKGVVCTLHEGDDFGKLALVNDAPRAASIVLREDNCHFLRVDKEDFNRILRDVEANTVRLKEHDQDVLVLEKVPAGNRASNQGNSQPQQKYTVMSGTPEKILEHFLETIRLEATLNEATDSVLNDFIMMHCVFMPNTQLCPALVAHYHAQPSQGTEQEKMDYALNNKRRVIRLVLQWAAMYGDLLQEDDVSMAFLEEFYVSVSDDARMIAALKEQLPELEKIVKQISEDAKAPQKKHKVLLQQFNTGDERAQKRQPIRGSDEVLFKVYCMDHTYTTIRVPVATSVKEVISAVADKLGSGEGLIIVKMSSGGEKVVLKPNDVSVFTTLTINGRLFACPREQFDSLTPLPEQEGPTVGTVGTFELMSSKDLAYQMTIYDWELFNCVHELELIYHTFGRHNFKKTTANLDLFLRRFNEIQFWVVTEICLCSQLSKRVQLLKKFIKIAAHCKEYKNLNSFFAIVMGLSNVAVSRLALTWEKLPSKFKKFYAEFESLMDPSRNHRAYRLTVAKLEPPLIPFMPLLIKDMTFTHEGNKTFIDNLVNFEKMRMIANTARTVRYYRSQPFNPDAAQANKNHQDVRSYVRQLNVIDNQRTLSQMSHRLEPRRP
# UniProt Q9UNA4: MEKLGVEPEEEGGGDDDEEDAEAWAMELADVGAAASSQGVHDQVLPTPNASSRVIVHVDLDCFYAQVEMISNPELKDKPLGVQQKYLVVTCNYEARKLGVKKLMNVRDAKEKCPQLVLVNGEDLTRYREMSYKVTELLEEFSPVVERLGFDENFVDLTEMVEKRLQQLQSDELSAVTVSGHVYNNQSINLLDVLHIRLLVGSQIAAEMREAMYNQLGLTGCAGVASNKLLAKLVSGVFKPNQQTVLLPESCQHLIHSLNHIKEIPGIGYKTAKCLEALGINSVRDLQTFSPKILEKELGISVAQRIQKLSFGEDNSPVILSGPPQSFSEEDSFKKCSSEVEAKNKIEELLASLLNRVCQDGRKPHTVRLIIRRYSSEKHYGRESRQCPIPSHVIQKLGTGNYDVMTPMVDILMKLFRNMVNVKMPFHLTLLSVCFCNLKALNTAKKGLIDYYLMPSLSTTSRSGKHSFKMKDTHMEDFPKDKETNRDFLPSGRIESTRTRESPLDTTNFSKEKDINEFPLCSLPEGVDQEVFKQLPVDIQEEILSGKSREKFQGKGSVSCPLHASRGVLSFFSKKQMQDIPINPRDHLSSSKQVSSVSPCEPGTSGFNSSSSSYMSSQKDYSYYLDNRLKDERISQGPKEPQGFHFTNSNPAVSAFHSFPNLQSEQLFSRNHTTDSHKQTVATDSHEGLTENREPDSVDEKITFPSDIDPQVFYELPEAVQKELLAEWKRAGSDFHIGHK
# The shares of active, inactive and inconclusive entries below differ from those in the screen. For some of these results: Potencies beside an inconclusive call are fits to weak or partial responses and may not hold up. Active and inactive are the calls of the source. Calls come from the whole dose curve; as a rule, active = well fitted curve in the direction sought with a large enough effect; inconclusive = small, poorly fitted or top-dose-only effect, or another doubt; inactive = no such curve, though single readings can be large; an effect the other way counts as inactive or inconclusive.
# Tests used:
# [1] = biological target: Rap guanine nucleotide exchange factor 4 (Homo sapiens) (UniProt Q8WZA2); assay: Confirmatory qHTS for agonist of cAMP-regulated guanine nucleotide exchange factor 4 (EPAC2) (AID 1645884);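 note: nucleotide exchange releases bodipy-GDP from Rap1 and this lowers its fluorescence; nearly all actives have a fitted effect of over 65% in size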; for activation: % is set by controls: 0 for no effect and ±100 for the full control effect
# [2] = biological target: Rap guanine nucleotide exchange factor 3 (Homo sapiens) (UniProt O95398); assay: Counterscreen qHTS for agonist of cAMP-regulated guanine nucleotide exchange factor 3 (EPAC1) (AID 1645889); details: EPAC1 Rap1B-BODIPY-GDP exchange, fluorescence; activation: at 154 µM (top of the series) unless noted; note: nearly all actives have a fitted effect of over 40% in size; for activation: % of control where 0% means no effect
# Outline: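 Rap1B-BODIPY-GDP 250 nM + GDP 50 uM; cpds 7-pt, final 9.74 nM–152 uM (activator mode) or from 7.32 nM upwards (inhibitor mode); RT; FI 480/540 nm at 5 and 30 min, then ± cAMP, reread.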
# [3] = biological target: DNA polymerase iota (Homo sapiens) (UniProt Q9UNA4); assay: qHTS for Inhibitors of Polymerase Iota: Confirmatory Assay for Cherry-picked Compounds (AID 720496); details: Pol iota primer extension, TAMRA/BHQ fluorescence
# Outline: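 Kinetic fluorescence, 0 → 10 min, ex 525/em 598 nm. Pol iota 10 nM, 15 min RT preincubation with compound, then 50 nM (final) TAMRA/BHQ-2 primer-template substrate.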
# Potency is the fitted concentration of half-maximal effect.
structure (smiles),measurement,setting,value
COc1ccc(C(=O)Nc2ccccc2C(=O)O)cc1NC(=O)C(c1ccccc1)c1ccccc1,Potency,[1],"inconclusive: 112 µM [activator, single point]"
same,Potency,[2],active: 112 µM
CCN(CC)c1ccc(/C=c2\sc3nc4ccccc4n3c2=O)c(O)c1,Potency,[1],"inconclusive: 126 µM [activator, partial curve, poor fit]"
same,Potency,[2],active: 56.2 µM
COc1ccccc1CN(C)CC(=O)Nc1ccc(Cl)cc1F,Potency,[1],"inconclusive: 112 µM [activator, partial curve, poor fit]"
same,Potency,[2],"inconclusive: 0.316 µM [activator, full curve, poor fit]"
O=C1CC(c2ccccc2C(F)(F)F)c2c(c3ccccc3[nH]c2=O)O1 (stereo unspecified),Potency,[1],inactive
same,Potency,[2],inactive
COc1ccc([N+](=O)[O-])cc1-c1nc2ccccc2nc1-c1ccccc1,Potency,[1],"inconclusive: 100 µM [activator, partial curve, poor fit]"
same,Potency,[2],"inconclusive: 1.12 µM [activator, full curve, poor fit]"
OCCCCC#Cc1c(-c2ccsc2)sc2ccccc12,Potency,[1],"inconclusive: 126 µM [activator, partial curve, poor fit]"
same,Potency,[2],"inconclusive: 1.26 µM [activator, full curve, poor fit]"
O=S(=O)(Nc1ccccc1N1CCCCC1)c1ccccc1,Potency,[1],"inconclusive: 28.2 µM [activator, full curve, poor fit]"
same,activation,[2],inconclusive: 36.7% [activator]
O=C(O)CSc1cc(C(=O)c2ccccc2O)cn2c(=O)c3c(-c4ccccc4)csc3nc12,Potency,[3],active: 21.2 µM
same,activation,[1],"inactive: -8.3% [at 17.1 µM, percent relative to cAMP agonist control]"

# Shown with tabs: part of the list above
structure (smiles)	measurement	setting	value
COc1ccc([N+](=O)[O-])cc1-c1nc2ccccc2nc1-c1ccccc1	Potency	[2]	inconclusive: 1.12 µM [activator, full curve, poor fit]
OCCCCC#Cc1c(-c2ccsc2)sc2ccccc12	Potency	[1]	inconclusive: 126 µM [activator, partial curve, poor fit]
